Test results taken from patent publication US20260217787A1.
Results are given in words; binding and its absence hold for the method and conditions named. Some results given as binding are weak or reduced against the parent protein; the word gives no strength. For part of these data: Where a sequence is shown, tags or fusion partners need not be part of it.

Columns and labels:
[1] = target: TnCAD TBR3 variant (Trichoplusia_ni_Cadherin_TBR3_CR9-TMD), TVMV protease cleaved / purified (Trichoplusia ni); assay: pull-down, gel filtration and Biacore (figure legend)
[2] = target: TnCAD-TBR3 variant A (Trichoplusia ni); assay: gel filtration (superdex75 or superdex200) of a 1.2:1 molar mixture
[3] = target: TnCAD-TBR3 variant B (Trichoplusia ni); assay: as above
[4] = target: MBP-fusion protein of TnCAD TBR3 variant (Trichoplusia ni); assay: ligand blot
[5] = target: TnCAD TBR3 variant (Trichoplusia_ni_Cadherin_TBR3_CR9-TMD), TVMV protease cleaved / purified (Trichoplusia ni); assay: ligand blot
[6] = target: TnCAD TBR3 variant (Trichoplusia_ni_Cadherin_TBR3_CR9-TMD), TVMV protease cleaved / purified (Trichoplusia ni); assay: gel filtration (HiLoad16/60 Superdex200), SDS-PAGE of the peak fractions
[7] = target: TnCAD TBR3 variant (Trichoplusia_ni_Cadherin_TBR3_CR9-TMD), TVMV protease cleaved / purified (Trichoplusia ni); assay: NiNTA pull-down through the C-terminal His tag of the receptor, SDS-PAGE
[8] = target: TnCAD-TBR3 variant A (Trichoplusia ni); assay: gel filtration (figure legend)
[9] = target: TnCAD-TBR3 variant B (Trichoplusia ni); assay: gel filtration (figure legend)

Measured: binding

Cry1Ab tryptic core (from UniProt P0A370 29-607) (ligand)
binds: all assays above
